This is an account of results in article PMC3114773.

Sequences of proteins named here, by UniProt entry; tags and fusion partners are left off. A change or cut given only in a name is not applied to a line headed by its entry.
UniProt P56726: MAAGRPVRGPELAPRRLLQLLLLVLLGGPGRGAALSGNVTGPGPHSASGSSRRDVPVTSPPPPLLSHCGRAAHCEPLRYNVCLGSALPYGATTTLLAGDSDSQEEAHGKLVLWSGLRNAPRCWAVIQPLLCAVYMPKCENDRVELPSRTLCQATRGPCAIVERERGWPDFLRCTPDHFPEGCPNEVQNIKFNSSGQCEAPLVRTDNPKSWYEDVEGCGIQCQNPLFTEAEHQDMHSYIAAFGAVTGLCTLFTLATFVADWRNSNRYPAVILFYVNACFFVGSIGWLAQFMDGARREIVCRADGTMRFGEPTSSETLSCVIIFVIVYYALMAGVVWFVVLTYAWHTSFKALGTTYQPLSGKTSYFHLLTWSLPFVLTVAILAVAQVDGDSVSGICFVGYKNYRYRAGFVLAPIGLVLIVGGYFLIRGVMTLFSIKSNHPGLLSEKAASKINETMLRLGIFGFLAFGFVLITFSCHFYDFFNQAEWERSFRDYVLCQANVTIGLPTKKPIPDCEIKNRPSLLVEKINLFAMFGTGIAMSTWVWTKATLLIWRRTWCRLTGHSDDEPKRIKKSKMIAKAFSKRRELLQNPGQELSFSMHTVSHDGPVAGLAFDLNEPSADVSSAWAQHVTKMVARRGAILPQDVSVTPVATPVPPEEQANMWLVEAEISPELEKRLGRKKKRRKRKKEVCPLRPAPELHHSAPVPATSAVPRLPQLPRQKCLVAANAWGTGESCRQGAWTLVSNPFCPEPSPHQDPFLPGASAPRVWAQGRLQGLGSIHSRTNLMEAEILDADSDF
UniProt Q8BK63: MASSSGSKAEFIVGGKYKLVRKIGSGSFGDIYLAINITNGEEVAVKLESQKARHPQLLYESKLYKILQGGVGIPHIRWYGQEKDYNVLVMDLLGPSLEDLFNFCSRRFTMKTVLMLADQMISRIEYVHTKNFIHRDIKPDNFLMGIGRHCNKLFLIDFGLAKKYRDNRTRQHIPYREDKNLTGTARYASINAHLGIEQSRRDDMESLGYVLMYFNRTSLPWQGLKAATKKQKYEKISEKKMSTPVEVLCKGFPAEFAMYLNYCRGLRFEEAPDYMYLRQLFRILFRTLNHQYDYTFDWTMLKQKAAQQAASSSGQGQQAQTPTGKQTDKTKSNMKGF
UniProt Q99MK8: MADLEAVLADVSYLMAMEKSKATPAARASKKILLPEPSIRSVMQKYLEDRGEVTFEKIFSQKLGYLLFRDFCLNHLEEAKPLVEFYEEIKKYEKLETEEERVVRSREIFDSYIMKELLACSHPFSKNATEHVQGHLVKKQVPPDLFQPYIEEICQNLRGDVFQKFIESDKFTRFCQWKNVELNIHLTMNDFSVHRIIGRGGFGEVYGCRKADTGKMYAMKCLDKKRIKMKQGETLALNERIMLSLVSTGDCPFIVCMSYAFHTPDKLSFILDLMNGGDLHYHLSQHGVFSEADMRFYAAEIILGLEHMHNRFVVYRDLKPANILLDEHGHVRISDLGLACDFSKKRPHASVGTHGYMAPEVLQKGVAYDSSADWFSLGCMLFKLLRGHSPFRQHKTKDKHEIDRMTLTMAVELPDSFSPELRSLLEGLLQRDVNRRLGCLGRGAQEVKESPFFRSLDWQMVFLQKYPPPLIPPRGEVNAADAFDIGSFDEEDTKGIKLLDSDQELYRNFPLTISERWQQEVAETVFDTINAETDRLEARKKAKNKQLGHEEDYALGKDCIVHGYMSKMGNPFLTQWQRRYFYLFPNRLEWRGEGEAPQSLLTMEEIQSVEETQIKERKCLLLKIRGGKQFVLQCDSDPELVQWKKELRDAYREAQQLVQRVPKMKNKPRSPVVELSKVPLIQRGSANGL

These are yes or no findings as the source states them, for the method shown. In cells and extracts the contact can be indirect. Binding calls can cover weak binding; strength is not graded here.

What all share (assay): co-IP; NIH 3T3 cells transfected with Myc- or HA-tagged Smo constructs, with or without Shh-conditioned medium; lysis in RIPA buffer (50 mM Tris-Cl pH 7.9, 150 mM NaCl, 5 mM EDTA, 1% NP-40); Smo pulled down, endogenous CK1α and GRK2 blotted
The target in experiment [1] is SmoM1 (full-length Smo with the M1 mutation) (not stated (mammalian)) (UniProt P56726).
Experiment [2] has as its target SmoΔ588 with the A1 mutation (not stated (mammalian)) (UniProt P56726).
In experiment [3] the target is SmoΔ588 with the M1 mutation (not stated (mammalian)) (UniProt P56726).

Regarding “endogenous CK1α (from UniProt Q8BK63 1-337) (enzyme)”, the binding result in experiment [1], in experiment [2] and in experiment [3] was “binds” each time.
As for “endogenous GRK2 (from UniProt Q99MK8 1-689) (enzyme)”, the binding result in experiment [1] is given as “binds”.
